Reference: publication PMC10177089
Results are given in words; binding and its absence hold for the method and conditions named. Binding seen in cells or lysates may run through a third protein. Some binding calls cover weakened binding; strength is not graded here.

By UniProt entry, the sequences of proteins in these tests, tags left out. Where a name states a change or a piece, a line headed by the entry shows the natural chain unless it says otherwise. Chains listed by the source or under a name are the forms on record and can include a tag or linker.
UniProt O14744: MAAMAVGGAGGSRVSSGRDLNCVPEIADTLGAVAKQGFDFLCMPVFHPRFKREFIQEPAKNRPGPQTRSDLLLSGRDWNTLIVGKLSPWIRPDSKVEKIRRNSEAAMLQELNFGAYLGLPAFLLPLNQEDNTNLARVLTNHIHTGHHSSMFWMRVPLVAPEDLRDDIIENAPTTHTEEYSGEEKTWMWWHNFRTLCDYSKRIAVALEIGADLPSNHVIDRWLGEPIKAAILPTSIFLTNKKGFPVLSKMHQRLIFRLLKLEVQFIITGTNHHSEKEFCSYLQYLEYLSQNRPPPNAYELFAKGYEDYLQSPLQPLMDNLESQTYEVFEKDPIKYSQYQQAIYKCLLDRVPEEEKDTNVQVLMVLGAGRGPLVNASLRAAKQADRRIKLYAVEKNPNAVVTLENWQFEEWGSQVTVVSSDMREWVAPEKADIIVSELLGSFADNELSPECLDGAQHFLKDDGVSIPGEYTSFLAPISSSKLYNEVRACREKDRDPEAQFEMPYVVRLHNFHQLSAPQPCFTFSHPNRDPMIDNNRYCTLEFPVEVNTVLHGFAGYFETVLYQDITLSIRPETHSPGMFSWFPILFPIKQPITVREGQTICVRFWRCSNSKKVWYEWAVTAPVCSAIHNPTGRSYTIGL
PRMT5-6KR (HEK293T) (O14744, form named): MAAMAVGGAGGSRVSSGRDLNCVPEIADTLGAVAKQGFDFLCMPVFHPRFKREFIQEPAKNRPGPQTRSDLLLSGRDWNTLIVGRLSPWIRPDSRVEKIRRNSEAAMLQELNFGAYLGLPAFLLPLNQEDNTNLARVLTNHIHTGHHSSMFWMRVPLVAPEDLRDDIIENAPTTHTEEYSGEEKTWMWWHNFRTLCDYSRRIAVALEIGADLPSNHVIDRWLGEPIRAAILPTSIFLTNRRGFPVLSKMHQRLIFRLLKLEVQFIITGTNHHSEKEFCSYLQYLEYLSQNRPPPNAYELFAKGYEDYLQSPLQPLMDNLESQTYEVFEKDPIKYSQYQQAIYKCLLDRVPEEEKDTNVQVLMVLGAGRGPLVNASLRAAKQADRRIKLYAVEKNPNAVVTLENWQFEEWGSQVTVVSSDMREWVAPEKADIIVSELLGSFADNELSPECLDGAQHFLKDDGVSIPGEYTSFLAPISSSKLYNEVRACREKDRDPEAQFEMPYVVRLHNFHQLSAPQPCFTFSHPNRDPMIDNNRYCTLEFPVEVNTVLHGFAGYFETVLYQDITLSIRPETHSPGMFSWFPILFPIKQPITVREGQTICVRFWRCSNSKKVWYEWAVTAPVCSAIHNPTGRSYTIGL

Target: PRMT5-6KR (HEK293T) (UniProt O14744)
Test: co-IP; Myc IP from HEK293T cells transfected with indicated plasmids; PRMT5 dimer formation; immunoblot

- binding: binds
Substance: PRMT5-6KR (HEK293T) (from UniProt O14744 1-637) (enzyme)
